{
  "sequences": {"note": "The chains behind the UniProt entries cited, without tags or fusion partners. Where a name states a change or a piece, a line headed by the entry shows the natural chain unless it says otherwise.", "UniProt Q9JIL6": "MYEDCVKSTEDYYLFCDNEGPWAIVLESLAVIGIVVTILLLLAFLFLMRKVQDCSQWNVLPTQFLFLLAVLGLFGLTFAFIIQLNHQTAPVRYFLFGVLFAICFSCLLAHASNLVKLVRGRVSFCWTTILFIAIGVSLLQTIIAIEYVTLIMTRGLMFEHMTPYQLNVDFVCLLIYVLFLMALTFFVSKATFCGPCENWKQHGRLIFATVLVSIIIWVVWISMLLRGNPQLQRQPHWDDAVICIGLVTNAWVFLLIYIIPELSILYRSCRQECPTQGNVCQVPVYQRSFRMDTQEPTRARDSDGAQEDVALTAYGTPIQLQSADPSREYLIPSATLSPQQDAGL"},
  "source": "patent US20250121064A1",
  "about": "(CARSGEN LIFE SCIENCES, published 2025)",
  "binders": {"B1": {"name": "hybridoma antibody AB1 (IgG2b-k) (antibody, V domains shown)", "VH": "EVQLQQSGPEVVKPGASMKISCKASGYSFTGYTMNWVKQSHGKNFEWIGLINPYNGGTSYNQKFKGKATLTVDKSSSTAYMELLSLTSEDSAVYYCTRGGFRAWFAFWGQGTLVTVSA", "VL": "DIQMTQSPSSLSASLGERVSLTCRASQDIGSNLNWLQQEPDGTIKRLIYATSILDSGVPKRFSGSRSGSDYSLTISSLESEDFVDYYCLQYATFPNTFGGGTKLEIKR", "notes": "Mouse hybridoma mIgG, IgG2b kappa"}},
  "key": {"[1]": {"target": "mouse GPRC5D on cells (mouse) (UniProt Q9JIL6)", "test": "flow cytometry on CHOK1-muGPRC5D cells (FIG. 2)"}, "[2]": {"target": "mouse GPRC5D on cells (mouse) (UniProt Q9JIL6)", "test": "flow cytometry on CHOK1-muGPRC5D cells"}},
  "note": "These are yes or no findings as the source states them, for the method shown. Some results given as binding are weak or reduced against the parent protein; the word gives no strength.",
  "data": [
    {"binder": "B1", "values": [
      {"measurement": "binding", "setting": "[1]", "value": "binds"},
      {"measurement": "binding", "setting": "[2]", "value": "binds"}
    ]}
  ]
}
